Experiment [1] addresses Ack1 (activated Cdc42-associated tyrosine kinase) (mouse (endogenous in brain)) (UniProt O54967). In words: co-IP; adult mouse brain homogenate (500 μg protein; 1% Triton X-100, 150 mM NaCl, HEPES pH 7.5), antibody against Ack1 or against CAMKII-α 2 h at 4°C, protein G-sepharose, Western blot; anti-GST antibody as control. (In general: Immunoblotting shows a protein as a band on a membrane.)

By UniProt entry, the sequences of proteins in these tests, tags left out.
UniProt O54967: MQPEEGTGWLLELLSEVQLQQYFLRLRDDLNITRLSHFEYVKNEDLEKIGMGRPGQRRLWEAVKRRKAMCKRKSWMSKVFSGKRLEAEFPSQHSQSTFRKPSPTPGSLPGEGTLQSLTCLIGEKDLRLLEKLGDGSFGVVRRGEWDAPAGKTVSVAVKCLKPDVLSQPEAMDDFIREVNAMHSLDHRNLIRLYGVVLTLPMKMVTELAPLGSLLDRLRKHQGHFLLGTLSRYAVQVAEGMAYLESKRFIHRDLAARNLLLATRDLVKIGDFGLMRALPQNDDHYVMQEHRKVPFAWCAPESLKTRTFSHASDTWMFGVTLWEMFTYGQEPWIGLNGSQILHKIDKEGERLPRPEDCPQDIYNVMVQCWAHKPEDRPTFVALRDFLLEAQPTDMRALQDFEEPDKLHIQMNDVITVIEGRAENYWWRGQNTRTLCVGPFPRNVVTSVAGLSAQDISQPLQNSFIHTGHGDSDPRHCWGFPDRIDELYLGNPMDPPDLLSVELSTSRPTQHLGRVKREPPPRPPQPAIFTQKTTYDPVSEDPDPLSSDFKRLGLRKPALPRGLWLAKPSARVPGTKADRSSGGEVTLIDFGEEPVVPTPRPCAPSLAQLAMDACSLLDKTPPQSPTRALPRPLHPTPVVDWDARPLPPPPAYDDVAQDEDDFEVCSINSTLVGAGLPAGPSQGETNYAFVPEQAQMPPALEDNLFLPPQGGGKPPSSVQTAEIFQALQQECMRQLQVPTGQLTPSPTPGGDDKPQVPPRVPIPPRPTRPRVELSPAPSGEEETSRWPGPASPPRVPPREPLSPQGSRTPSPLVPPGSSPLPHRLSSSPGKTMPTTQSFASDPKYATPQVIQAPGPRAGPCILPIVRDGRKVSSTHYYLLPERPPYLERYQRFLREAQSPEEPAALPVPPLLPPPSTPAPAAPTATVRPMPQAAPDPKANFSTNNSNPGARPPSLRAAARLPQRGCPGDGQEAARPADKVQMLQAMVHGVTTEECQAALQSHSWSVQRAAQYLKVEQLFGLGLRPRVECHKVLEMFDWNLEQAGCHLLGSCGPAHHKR
UniProt P11798: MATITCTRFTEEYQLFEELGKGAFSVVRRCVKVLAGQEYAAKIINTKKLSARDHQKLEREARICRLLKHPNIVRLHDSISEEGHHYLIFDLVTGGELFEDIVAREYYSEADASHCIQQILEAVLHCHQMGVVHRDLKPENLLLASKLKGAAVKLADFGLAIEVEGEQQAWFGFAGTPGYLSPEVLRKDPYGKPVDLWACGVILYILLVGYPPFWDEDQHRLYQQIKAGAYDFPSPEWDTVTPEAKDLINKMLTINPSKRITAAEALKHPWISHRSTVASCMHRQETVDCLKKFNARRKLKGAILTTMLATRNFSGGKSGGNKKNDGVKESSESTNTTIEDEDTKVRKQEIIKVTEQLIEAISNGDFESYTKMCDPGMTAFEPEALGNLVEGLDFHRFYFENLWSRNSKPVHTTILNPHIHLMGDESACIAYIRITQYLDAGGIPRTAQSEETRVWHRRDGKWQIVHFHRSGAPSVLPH

Experiment [2] concerns the target CAMKII-α (Calmodulin kinase II) (mouse (endogenous in brain)) (UniProt P11798). The description is as above.

Drawing on PMC5731862, this text covers binding for two substances.

These are yes or no findings as the source states them, for the method shown. Binding seen in cells or lysates may run through a third protein. Some entries that bind do so weakly or less than the wild type.

“CAMKII-α (Calmodulin kinase II) (from UniProt P11798 1-478) (enzyme)”: the binding result in experiment [1] is recorded as “binds”. In the case of “Ack1 (activated Cdc42-associated tyrosine kinase) (from UniProt O54967 1-1055) (enzyme)”, in experiment [2], the binding result is on record as “binds”.
